From PMC11555233

Chains of the proteins cited; added tags and fusions are not shown. Lines headed by an entry give the natural chain unless they say otherwise; changes in a name come on top. A line that says so, or that is headed by a name, gives the form on record, which may keep a tag or linker.
UniProt Q13485: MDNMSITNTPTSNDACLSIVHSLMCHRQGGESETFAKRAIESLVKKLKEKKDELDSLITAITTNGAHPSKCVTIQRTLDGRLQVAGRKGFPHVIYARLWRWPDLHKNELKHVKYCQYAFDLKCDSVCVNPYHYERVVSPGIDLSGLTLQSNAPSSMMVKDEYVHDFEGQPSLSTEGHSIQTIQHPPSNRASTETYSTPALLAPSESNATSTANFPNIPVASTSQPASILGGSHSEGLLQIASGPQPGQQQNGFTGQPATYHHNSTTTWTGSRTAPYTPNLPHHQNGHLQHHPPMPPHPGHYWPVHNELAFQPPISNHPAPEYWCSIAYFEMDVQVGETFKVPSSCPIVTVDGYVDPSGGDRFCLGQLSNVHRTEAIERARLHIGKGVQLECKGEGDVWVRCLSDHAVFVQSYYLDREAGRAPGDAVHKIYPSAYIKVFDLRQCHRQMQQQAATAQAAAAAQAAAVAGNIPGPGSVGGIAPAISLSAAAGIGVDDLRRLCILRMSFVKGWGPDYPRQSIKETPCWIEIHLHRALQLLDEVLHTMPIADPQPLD
Flag-TurboID-SMAD4-2LA (Q13485, form named): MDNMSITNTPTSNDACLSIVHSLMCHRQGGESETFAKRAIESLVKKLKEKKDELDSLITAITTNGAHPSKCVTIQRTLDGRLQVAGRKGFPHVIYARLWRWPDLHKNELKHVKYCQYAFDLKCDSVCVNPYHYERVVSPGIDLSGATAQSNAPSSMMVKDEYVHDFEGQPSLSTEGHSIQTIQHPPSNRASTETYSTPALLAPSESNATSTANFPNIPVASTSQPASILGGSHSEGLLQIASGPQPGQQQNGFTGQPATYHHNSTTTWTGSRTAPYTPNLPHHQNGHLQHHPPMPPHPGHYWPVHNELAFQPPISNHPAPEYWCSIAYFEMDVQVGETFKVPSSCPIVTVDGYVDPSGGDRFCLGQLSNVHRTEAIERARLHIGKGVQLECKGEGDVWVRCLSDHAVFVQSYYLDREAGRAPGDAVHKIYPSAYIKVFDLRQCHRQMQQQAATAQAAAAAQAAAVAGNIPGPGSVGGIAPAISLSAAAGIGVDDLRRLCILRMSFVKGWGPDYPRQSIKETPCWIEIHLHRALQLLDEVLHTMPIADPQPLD
UniProt P13010: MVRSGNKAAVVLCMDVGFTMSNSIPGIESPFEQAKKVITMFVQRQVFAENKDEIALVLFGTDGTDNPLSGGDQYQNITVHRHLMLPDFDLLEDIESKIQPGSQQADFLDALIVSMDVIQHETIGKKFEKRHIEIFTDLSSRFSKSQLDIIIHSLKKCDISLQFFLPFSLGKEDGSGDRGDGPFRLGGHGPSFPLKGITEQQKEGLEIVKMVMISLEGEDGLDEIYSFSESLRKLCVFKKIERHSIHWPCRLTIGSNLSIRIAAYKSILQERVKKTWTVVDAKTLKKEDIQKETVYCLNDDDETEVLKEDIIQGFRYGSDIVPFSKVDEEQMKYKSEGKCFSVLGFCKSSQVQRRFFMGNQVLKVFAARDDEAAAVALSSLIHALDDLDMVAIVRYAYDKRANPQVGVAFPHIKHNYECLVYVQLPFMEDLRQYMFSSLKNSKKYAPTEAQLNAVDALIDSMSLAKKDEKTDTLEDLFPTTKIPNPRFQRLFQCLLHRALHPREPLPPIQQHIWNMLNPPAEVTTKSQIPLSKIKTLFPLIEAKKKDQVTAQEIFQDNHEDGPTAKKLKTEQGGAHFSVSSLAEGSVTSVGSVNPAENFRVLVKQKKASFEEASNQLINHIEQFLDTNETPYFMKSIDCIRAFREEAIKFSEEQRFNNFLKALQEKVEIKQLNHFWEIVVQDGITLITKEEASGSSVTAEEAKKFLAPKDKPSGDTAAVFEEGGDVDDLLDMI
UniProt P09874: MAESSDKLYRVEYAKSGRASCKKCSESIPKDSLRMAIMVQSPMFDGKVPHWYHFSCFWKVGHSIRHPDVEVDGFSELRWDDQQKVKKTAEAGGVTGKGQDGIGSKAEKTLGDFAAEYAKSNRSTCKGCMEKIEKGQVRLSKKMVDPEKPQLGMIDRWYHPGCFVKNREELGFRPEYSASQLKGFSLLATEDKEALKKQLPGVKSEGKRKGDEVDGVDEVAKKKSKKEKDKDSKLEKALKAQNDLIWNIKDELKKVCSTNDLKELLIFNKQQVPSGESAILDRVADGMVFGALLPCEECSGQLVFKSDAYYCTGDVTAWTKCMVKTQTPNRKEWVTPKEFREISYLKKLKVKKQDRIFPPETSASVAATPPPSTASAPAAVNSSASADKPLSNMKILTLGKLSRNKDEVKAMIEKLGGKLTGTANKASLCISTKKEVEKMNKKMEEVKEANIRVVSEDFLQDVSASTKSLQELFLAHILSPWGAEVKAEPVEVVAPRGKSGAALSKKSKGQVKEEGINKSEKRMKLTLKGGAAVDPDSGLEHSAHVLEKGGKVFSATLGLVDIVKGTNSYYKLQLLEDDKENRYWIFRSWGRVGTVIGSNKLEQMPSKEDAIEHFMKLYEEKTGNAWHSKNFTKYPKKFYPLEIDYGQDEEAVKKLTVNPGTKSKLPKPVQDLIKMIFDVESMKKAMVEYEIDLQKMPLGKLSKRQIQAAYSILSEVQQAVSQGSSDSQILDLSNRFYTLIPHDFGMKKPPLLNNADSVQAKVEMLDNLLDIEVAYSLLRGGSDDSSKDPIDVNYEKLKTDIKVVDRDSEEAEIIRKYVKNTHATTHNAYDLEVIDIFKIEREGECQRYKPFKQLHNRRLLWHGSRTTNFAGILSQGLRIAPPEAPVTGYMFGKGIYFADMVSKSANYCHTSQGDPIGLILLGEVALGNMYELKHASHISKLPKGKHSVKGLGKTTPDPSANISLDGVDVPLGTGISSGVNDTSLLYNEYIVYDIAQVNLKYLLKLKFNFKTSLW

Target: Flag-TurboID-SMAD4-2LA (UniProt Q13485)
Assay: proximity labelling; TurboID fused to nuclear SMAD4-2LA in transfected HEK293FT cells, with or without irradiation; NETN lysate on streptavidin beads at 4 °C overnight, then mass spectrometry

| binding | Substance |
| --- | --- |
| binds | XRCC5 (from UniProt P13010 1-732) |
| binds | endogenous PARP1 (from UniProt P09874 1-1014) |

Results are given in words; binding and its absence hold for the method and conditions named. In cells and extracts the contact can be indirect. Here binding means that the protein was enriched with, or labelled near, the bait; the list need not be complete.
